A short description of this series: Body weight before and 7 days after LAD ligation. Particulars: CBD group, Day 7 after LAD ligation, 5 mg/kg IP daily. Type of series: in vivo, rats.

In patent US20100158973A1 (HADASIT MEDICAL RESEARCH SERVICES & DEVELOPMENT LlIMITED, priority 2006, published 2010) one finds Weight data, which are given here for one substance.

Turning to Cannabidiol [CBD], the Weight was 314.57±8.67 gr.
